Source: publication PMC12629989
Results are given in words; binding and its absence hold for the method and conditions named. Binding seen in cells or lysates may run through a third protein. Some binding calls cover weakened binding; strength is not graded here.

By UniProt entry, the sequences of proteins in these tests, tags left out.
UniProt Q9QZL0: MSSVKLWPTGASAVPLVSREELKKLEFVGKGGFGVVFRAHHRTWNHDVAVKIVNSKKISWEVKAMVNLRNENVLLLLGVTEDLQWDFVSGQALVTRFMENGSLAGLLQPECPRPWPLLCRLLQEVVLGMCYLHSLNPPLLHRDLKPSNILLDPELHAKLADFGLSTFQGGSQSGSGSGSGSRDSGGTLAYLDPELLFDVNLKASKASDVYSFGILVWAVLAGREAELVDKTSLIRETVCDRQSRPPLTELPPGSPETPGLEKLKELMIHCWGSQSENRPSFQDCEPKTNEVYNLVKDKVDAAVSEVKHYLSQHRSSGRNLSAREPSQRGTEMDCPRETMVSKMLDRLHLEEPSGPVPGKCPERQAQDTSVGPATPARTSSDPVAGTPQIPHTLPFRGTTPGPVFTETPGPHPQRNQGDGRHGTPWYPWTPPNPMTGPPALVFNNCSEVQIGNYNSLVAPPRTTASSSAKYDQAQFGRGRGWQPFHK

Target: T1, Z-DNA-binding protein 1 (mouse (endogenous in MEFs)) (UniProt Q9QY24)
T1 sequence: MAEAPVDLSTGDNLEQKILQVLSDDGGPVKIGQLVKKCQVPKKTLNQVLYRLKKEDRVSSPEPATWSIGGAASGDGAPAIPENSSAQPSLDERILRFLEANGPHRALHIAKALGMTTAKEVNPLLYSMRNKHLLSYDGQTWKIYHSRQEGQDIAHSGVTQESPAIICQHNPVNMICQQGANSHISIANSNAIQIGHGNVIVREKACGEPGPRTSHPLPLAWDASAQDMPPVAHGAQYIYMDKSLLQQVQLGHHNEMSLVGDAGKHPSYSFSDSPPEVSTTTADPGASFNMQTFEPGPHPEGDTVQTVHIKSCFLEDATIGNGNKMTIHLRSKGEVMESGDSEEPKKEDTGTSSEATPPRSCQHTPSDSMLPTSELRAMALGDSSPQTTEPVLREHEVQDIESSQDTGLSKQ
Test: co-IP; anti-ZBP1 antibody on G-Sepharose beads, lysates of immortalized Mlkl-/-, Fadd-/-Mlkl-/- and Casp8-/-Mlkl-/- MEFs, basal or treated with DMXAA, C-178, TNF, Z-VAD-FMK and BV6 for 48 h; overnight at 4 °C; washes with 150 mM NaCl, Tris-HCl pH 7.4, 5% glycerol, 0.5% Triton X-100; immunoblot

receptor-interacting serine/threonine-protein kinase 3 (from UniProt Q9QZL0 1-486)
binding: binds
